Laboratory results published in patent US4957902A, “Peptide inhibitors of wound contraction” (Board of Regents, the University of Texas System, priority 1988, dated 1990).
At least one peptide structure holds a part that was inferred or is arguable (an end, a ring closure or a residue). Residues, ends and D or L forms follow the SMILES beside them.

What was measured:
[1] = system: Human skin fibroblasts in collagen gels; experiment: Fibroblast contraction of attached collagen gels (decrease in gel thickness); assay type: cell-based; details: 10% fetal bovine serum; for rate of collagen gel contraction: control about 25% per hour
[2] = system: Human skin fibroblasts on collagen-coated surfaces; assay type: cell-based; details: serum-free DMEM; for effect on extent of fibroblast spreading as measured by projected cell surface area: 60 minutes at 37°, 0.5 mg/ml for GRGESP, 0.125-0.50 mg/ml for GRGDSP (FIG. 5)
Method: The incubations contained peptides at the concentrations indicated and cell spreading was measured after 60 minute Method: Falcon 35 mm tissue culture dishes were coated with collagen (Vitrogen 100; 50 ug/ml in DMEM) for 15 minutes at 37° C. and counter-coated for 15 minutes with 1 mg/ml heat denatured bovine serum albumin. Human skin fibroblasts in DMEM with peptides added at the concentrations indicated were incubated on the substrata for 60 minutes at 37°. The end of the incubations, the cells were fixed and projected cell surface areas were measured by superimposing the microscopic field on the digitizing tablet of a Zidas image analyzer. Data presented are averages±95% confidence limits based on measurement of 50-100 cells. See reference 21 for complete details.

[3] = system: Human skin fibroblasts inside collagen gels; experiment: Microscopic observation of fibroblast spreading inside collagen gels; assay type: cell-based; details: for fibroblast morphology / spreading inside collagen gels: 0.5 mg/ml peptide, medium with 10% fetal bovine serum; for fibroblast spreading inside collagen gels: serum-free medium, after 5 hours
[4] = system: guinea pig full thickness wounds; experiment: Contraction of guinea pig full thickness wounds; assay type: in vivo; details: for time course / rate of wound contraction versus saline control group: 0.35 ml isotonic saline containing 1 mg/ml peptide applied to wound on days 6, 8, 10, 12, 14, individual animals (FIG. 1, 2)

SMILES	effect on collagen gel contraction ([1]; 0.25 mg/ml peptide)	effect on collagen gel contraction ([1]; 0.50 mg/ml peptide)	effect on extent of fibroblast spreading as measured by projected cell surface area [2]	fibroblast morphology / spreading inside collagen gels [3]	fibroblast spreading inside collagen gels [3]	time course / rate of wound contraction versus saline control group [4]	rate of collagen gel contraction ([1]; 0.25 mg/ml peptide)	inhibition of collagen gel contraction rate ([1]; 0.50 mg/ml peptide) [%]	rate of collagen gel contraction ([1]; 0.50 mg/ml peptide, up to 3 hours)	shape of spread cells on collagen-coated surfaces ([2]; 0.5 mg/ml peptide, 60 minutes)	extent of wound contraction, averages per group ([4]; 1 mg/ml peptide in saline, days 6-14, monitored out to 28 days (FIG. 3))
N=C(N)NCCC[C@H](NC(=O)CN)C(=O)NCC(=O)N[C@@H](CC(=O)O)C(=O)N[C@@H](CO)C(=O)N1CCC[C@H]1C(=O)O [GRGDSP, Gly--Arg--Gly--Asp--Ser--Pro, reference compound]	no effect on contraction	inhibition of contraction although the effect was much pronounced than observed with GRGESP	inhibited cell spreading in a dose-dependent fashion	most of the cells were elongated with pseudopodia similar to control cells	cells were spread	no significant difference	–	–	–	–	–
N=C(N)NCCC[C@H](NC(=O)CN)C(=O)NCC(=O)N[C@@H](CCC(=O)O)C(=O)N[C@@H](CO)C(=O)N1CCC[C@H]1C(=O)O [GRGESP, Gly--Arg--Gly--Glu--Ser--Pro] (H-GRGESP-OH)	inhibition was less pronounced	–	no effect	cells did not extend pseudopodia and most remained round	the cells remained round	slower than the contraction rate of the control group	about 18 % per hour	70	about 8 % per hour	a change in the shape of spread cells	marked inhibition of wound contraction
